No constants are given. Whether binding was seen depends on the method and setting. Some results given as binding are weak or reduced against the parent protein; the word gives no strength.

Sequences of proteins named here, by UniProt entry; tags and fusion partners are left off.
UniProt P0A9A6: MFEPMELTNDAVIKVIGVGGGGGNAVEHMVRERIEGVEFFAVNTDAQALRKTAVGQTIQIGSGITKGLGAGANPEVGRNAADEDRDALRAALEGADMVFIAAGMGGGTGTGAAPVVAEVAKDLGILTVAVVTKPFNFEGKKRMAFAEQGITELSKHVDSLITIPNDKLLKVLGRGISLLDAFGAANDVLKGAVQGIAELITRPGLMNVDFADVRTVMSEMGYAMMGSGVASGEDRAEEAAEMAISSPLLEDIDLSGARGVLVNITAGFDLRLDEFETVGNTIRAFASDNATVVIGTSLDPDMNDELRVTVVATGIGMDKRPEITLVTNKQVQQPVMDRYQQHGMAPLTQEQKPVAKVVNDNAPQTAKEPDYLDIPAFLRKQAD

The values that follow come from patent US20050059058A1.

The target of the assay is FtsZ protein (native, unlabelled) (Escherichia coli) (UniProt P0A9A6). The assay is described as follows: assay not described.

In the case of HFTK-ZipA (from UniProt B1IX59 1-328), the binding result is recorded as “binds”.

As for “labelled derivative of ZipA in which a portion of the protein is fused to Green Fluorescent Protein (from UniProt B1IX59 1-328)”, the binding result is reported as “binds”.
